# Measured values published in PubChem BioAssay AID1671190 (National Center for Advancing Translational Sciences (NCATS), 2021).
# Protein sequences, listed by entry. Tags and fused reporters are not part of them. Lines headed by an entry give the natural chain unless they say otherwise; changes in a name come on top.
# UniProt P18054: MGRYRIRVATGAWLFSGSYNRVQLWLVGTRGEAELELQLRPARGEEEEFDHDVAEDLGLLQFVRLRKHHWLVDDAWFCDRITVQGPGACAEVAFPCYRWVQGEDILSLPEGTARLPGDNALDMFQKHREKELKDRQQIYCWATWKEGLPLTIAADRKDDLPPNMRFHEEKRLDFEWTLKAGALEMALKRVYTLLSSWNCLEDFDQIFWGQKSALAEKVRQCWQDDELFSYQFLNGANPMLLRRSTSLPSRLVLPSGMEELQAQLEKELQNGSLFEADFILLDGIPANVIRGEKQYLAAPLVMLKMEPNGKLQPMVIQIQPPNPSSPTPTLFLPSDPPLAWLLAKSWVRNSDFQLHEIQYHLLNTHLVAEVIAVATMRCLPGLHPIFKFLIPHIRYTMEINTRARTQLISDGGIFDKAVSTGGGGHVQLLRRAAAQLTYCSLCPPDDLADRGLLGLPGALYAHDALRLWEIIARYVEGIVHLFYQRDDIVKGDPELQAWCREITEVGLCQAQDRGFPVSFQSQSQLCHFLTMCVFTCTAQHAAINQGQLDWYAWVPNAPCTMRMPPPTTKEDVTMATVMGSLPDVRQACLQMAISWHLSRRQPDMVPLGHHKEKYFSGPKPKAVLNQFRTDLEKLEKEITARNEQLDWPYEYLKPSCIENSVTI
# “And” between values parts separate entries of the source, which are not always exact repeats. Identical values can stand only once. In all, about 580,000 compounds went through this assay and about 6,100 (1.1%) were called active. Inconclusive means that the source gave no clear call. Such entries were picked first, then a sample of the others. Calls come from the whole dose curve; as a rule, active = well fitted inhibition curve with a large enough effect; inconclusive = small, poorly fitted or top-dose-only effect, or another doubt; inactive = no such curve, though single readings can be large or run the other way. A potency beside an inconclusive call is a rough fit, not a confirmed value.
# Molecular target: Polyunsaturated fatty acid lipoxygenase ALOX12 (Homo sapiens) (UniProt P18054)
# Assay: Primary qHTS assay for inhibitors of human arachidonate 12S-lipoxygenase (ALOX12): Round 2
# Conditions: purified 12hLO, xylenol orange hydroperoxide absorbance; activity change, negative = inhibition: at 108 µM (top of the series) unless noted
# How it was run: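 Purified human 12hLO (150 nM final) in 25 mM Hepes, 0.01% Triton X-100, pH 7.0 was preincubated 15 min at room temperature with compound. Then 40 uM arachidonic acid was added, 30 min. Hydroperoxide was read by Fe-XO absorbance ratio 573/405 nm.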
# % is set by controls: 0 for no effect and ±100 for the full control effect; potency is the fitted concentration of half-maximal effect.
Compound,Potency,"activity change, negative = inhibition"
COC(=O)COc1cccn2c(=O)c(-c3cc(C)n(-c4ccc(C)cc4C)n3)c(C)nc12,"inconclusive: 17.8 µM [inhibitor, full curve]",–
N#C/C(=C/c1ccc(OC(F)F)cc1)C(=O)Nc1cccc(C(F)(F)F)c1,–,inactive: -5.55%
Cc1ccc(/C=N/n2c(-c3ccco3)n[nH]c2=S)cc1,"inconclusive: 39.8 µM [inhibitor, partial curve, poor fit]",–
COCCNC(=O)c1ccccc1N(Cc1ccccc1)S(=O)(=O)c1ccc(C)cc1,–,inactive: -7.16%
COc1ccc(C(=O)N=c2nc3ccccn3s2)cc1,"inconclusive: 39.8 µM [inhibitor, single point]",–
O=C1CC2(CCN(C(=O)c3ccccn3)CC2)Oc2ccccc2N1,–,inactive: 0.797% [at 6.33 µM]
COc1cc2nc(/C=C/c3cc(OC)c(OC)c(OC)c3)sc2cc1SC,–,inactive: -29.9%
COc1ccc(-c2ccc(C(=O)Nc3ccc(NC(C)=O)cc3)c3occc23)c(C)c1,"inconclusive: 79.4 µM [inhibitor, single point]",–
N/C(=N\OC(=O)COc1ccc(Cl)cc1Cl)c1cccnc1,–,inactive: -13.9%
CCCn1c(SCc2ccc(C(=O)OC)o2)nc2ccccc2c1=O,–,inactive: -18%
COC(=O)c1ccc(/C=C/c2nc3ccc(OC)cc3s2)cc1,–,inactive: -46.1%
CN1C(=O)N(CC(=O)N2CCN(S(=O)(=O)Cc3ccccc3)CC2)C(=O)C12CCCCC2,–,inactive: 1.85%
CCOC(=O)c1sc2nc(C)nc(Nc3cccc(C(F)(F)F)c3)c2c1C,"inconclusive: 44.7 µM [inhibitor, partial curve, poor fit]",–
CC1(C(=O)NS(=O)(=O)c2ccccc2Cl)CCN1C(=O)CCc1ccc(Cl)cc1Cl (stereo not drawn),"inconclusive: 50.1 µM [inhibitor, partial curve, poor fit]",–
CC1(c2ccccc2)N(Cc2ccccc2)C(=O)OC12CCN(Cc1c[nH]c3ccccc13)CC2 (stereo not drawn),active: 44.7 µM,–
O=C1CC(c2ccccc2Oc2cccc(Cl)c2)C(n2cncn2)C(=O)C1C1NCCc2ccccc21 (stereo not drawn),active: 31.6 µM,–
CCOC(=O)C1CCN(Cc2cc(=O)oc3cc(C)ccc23)CC1,"inconclusive: 112 µM [inhibitor, single point]",–
Cc1nn2c(c1-c1cccnc1N1CCOCC1)N(Cc1ccccc1)CCC2,"inconclusive: 12.6 µM [inhibitor, full curve, poor fit]",–
Cc1ccc2cc(C(c3nnnn3CC3CCCO3)N3CCCC4(CCCCC4)C3)c(=O)[nH]c2c1 (stereo not drawn),"inconclusive: 50.1 µM [inhibitor, partial curve, poor fit]",–
CCC(=O)Nc1nc(CC(=O)Nc2ccccc2OC)cs1,–,inactive: 8.71%
Cc1cc(C)nc(/N=C(\N)Nc2ccc(CC(=O)OC(C)C)cc2)n1,–,inactive: 15.2%
O=Cc1cn(CC(=O)N2CCCc3ccccc32)c2ccccc12,"inconclusive: 5.62 µM [inhibitor, full curve, poor fit]",–
O=C(NC(=S)NC1CCN(Cc2ccccc2)CC1)c1ccc(F)cc1,"inconclusive: 126 µM [inhibitor, single point]",–

Compound,Potency,"activity change, negative = inhibition"
CC(C)=CCc1ccc(O)c(=O)cc1C(C)C,active: 25.1 µM,–
CCOc1cc(CNCCSc2nnnn2C)cc(Br)c1OCc1ccccc1,"inconclusive: 28.2 µM [inhibitor, single point]",–
CCCCNc1ncnc2c1nnn2C,–,inactive: -24.3%
Cc1ccc(NC(=O)c2cc(S(=O)(=O)NCCc3ccccc3)ccc2F)cc1Cl,"inconclusive: 126 µM [inhibitor, partial curve, poor fit]",–
CCN1CCN(c2oc(-c3ccc(COc4ccc(C)cc4)o3)nc2C#N)CC1,"inconclusive: 112 µM [inhibitor, partial curve, poor fit]",–
COc1ccccc1CNC(=O)c1ncoc1-c1cccs1,"inconclusive: 35.5 µM [inhibitor, single point]",–
CCc1ccccc1NC(=O)Cn1c(N2CCc3ccccc3C2)nc(C)cc1=O,"inconclusive: 50.1 µM [inhibitor, single point]",–
CCCCn1nnc(NC(=S)NC(=O)c2ccc(OCC)c([N+](=O)[O-])c2)n1,"inconclusive: 2.82 µM [inhibitor, full curve, poor fit]",–
N/C(=N\OS(=O)(=O)c1ccccc1)c1cccnc1,–,inactive: 1.73%
Fc1ccc(C2c3cccn3CCN2C(=S)Nc2cccc(Br)c2)cc1 (stereo not drawn),"inconclusive: 50.1 µM [inhibitor, partial curve, poor fit]",–
COc1ccc(OC)c(C(=O)Oc2ccc(C#N)cc2)c1,"inconclusive: 100 µM [inhibitor, single point]",–
COc1cccc(NC(=O)Cn2c(=O)n(-c3ccc(Cl)cc3)c(=O)c3oc4ccccc4c32)c1,"inconclusive: 39.8 µM [inhibitor, partial curve]",–
O=C1C(=O)N(c2nccs2)C(c2ccccc2F)/C1=C(\O)c1ccc2c(c1)OCCO2 (stereo not drawn),"inconclusive: 3.55 µM [inhibitor, full curve, poor fit]",–
ClCc1coc(-c2ccc(Cl)cc2)n1,"inconclusive: 10 µM [inhibitor, full curve]",–
CSCCC(NC(=O)c1ccccc1Cl)C(=O)NNC(=O)c1ccccc1O (stereo not drawn),"inconclusive: 28.2 µM [inhibitor, partial curve]",–
S=C(c1ccc(-c2ccc(Cl)cc2Cl)o1)N1CCCCC1,"inconclusive: 5.62 µM [inhibitor, partial curve, poor fit]",–
CCc1cc(=O)n(CC(=O)N2CCN(c3ccc(OC)cc3)CC2)c(-c2ccccc2)n1,"inconclusive: 31.6 µM [inhibitor, partial curve]",–
CS(=O)(=O)N1CCC(OC2CCN(C(=O)Nc3ccc(F)cc3)CC2)CC1,–,inactive: 37.5%
c1ccc(C[C@H]2CNCCN2CCc2cccc3ccccc23)cc1,"inconclusive: 126 µM [inhibitor, partial curve, poor fit]",–
Cc1ccc(S(=O)(=O)c2cn(CC(=O)Nc3ccc4c(c3)OCO4)c3ccccc3c2=O)cc1,"inconclusive: 7.94 µM [inhibitor, partial curve, poor fit]",–
Cc1cccc(N2CCN(C(=O)Cc3c(C(=O)O)[nH]c4ccc(Cl)cc34)CC2)c1C,"inconclusive: 44.7 µM [inhibitor, partial curve, poor fit]",–
COc1cccc(N2C(=O)NC(=NC3CCCC3)C23CCCN(CC2CCCCC2)C3)c1 (stereo not drawn),active: 79.4 µM,–
Cc1cc(C)n2nc(C(=O)NCc3ccccc3)nc2n1,–,inactive: 0%

Compound,Potency,"activity change, negative = inhibition"
Oc1ccc(/C=C/c2ccc3ccccc3n2)cc1,"inconclusive: 28.2 µM [inhibitor, partial curve, poor fit]",–
CCCCN1C[C@H](C)[C@@H](CC(=O)NCc2ccccc2)C1=O,–,inactive: -1.8%
Cc1cccc2sc(N(CCCN(C)C)C(=O)c3ccc(Cl)s3)nc12,"inconclusive: 20 µM [inhibitor, partial curve, poor fit] and inconclusive: 56.2 µM [inhibitor, partial curve, poor fit]",–
O=C1C(=O)N(Cc2cccnc2)C(c2cccc(O)c2)/C1=C(\O)c1ccc2c(c1)OCCO2 (stereo not drawn),–,inactive: -21%
Cc1oc(-c2cccs2)nc1CN1CC[C@@](O)(c2ccccc2)[C@H]2CCCC[C@@H]21,–,inactive: -8.63%
S=c1[nH]nc(COc2ccccc2)n1/N=C/C=C/c1ccccc1,–,inactive: -15.7%
COc1ccc(/C=C/c2nc(C#N)c(NCCN3CCOCC3)o2)cc1OC,"inconclusive: 100 µM [inhibitor, single point]",–
CCCOC(=O)C1=C(C)NC(=O)NC1c1ccc(Br)s1 (stereo not drawn),"inconclusive: 126 µM [inhibitor, single point]",–
Cn1ccc2c(/C=C/c3ccc(F)cc3)cc3c(c21)C1CCC3O1 (stereo not drawn),"inconclusive: 100 µM [inhibitor, partial curve, poor fit]",–
O=C(Nc1cccc2cccnc12)c1ccc2sc([C@@H]3O[C@H](CO)[C@H](O)[C@H](O)[C@H]3O)nc2c1,"inconclusive: 5.62 µM [inhibitor, full curve]",–
COc1cccc(NC(=O)CSc2nc(=O)n(Cc3ccco3)c3c2CCC3)c1,"inconclusive: 44.7 µM [inhibitor, partial curve, poor fit]",–
Cc1cc(C)nc(/N=C(\NC(=O)C(C)(C)C)Nc2ccccc2)n1,"inconclusive: 79.4 µM [inhibitor, partial curve, poor fit]",–
CCN(CC)S(=O)(=O)c1ccc2cc(OC)ccc2c1,–,inactive: -19.7%
COc1ccc(NC(=O)C(C)N2CCN(C)CC2)cc1 (stereo not drawn),"inconclusive: 0.501 µM [inhibitor, full curve, poor fit]",–
COc1ccc2[nH]c(C)c(CC(=O)O)c2c1,"inconclusive: 31.6 µM [inhibitor, partial curve]",–
Cc1cnc(CC2CCCN(C(=O)C3(c4ccccc4)CC3)C2)n1Cc1ccc(F)cc1 (stereo not drawn),–,inactive: 0.45%
O=C(Nc1cccc(Cl)c1)c1ccc(S(=O)(=O)NCC2CCCO2)cc1 (stereo not drawn),–,inactive: -0.0734%
N#Cc1c(NC(=O)c2cccc3ccccc23)sc2c1CCCC2,"inconclusive: 12.2 µM [inhibitor, partial curve]",–
N#CCCN/N=C/c1ccncc1,"inconclusive: 2.51 µM [inhibitor, full curve]",–
Cc1cc(C)nc(NC(=O)CSc2nn(-c3ccccc3)c(=S)s2)n1,"inconclusive: 100 µM [inhibitor, single point]",–
COC(=O)c1ccc(CNC(=O)c2ccccc2-c2ccccc2)cc1,–,inactive: -49.2%
CCc1ccc(NC(=O)Nc2ccccc2SCc2cc(=O)n3cc(C)ccc3n2)cc1,"inconclusive: 5.62 µM [inhibitor, full curve, poor fit]",–
